Data: patent US7745493B2, “Methods of treating tardive dyskinesia and other movement disorders” (priority 1998, dated 2010)
At least one structure is not confirmed: it was looked up by name or label, or the drawing left a doubt.

System: person two with long-standing TD
Assay: Case Report 1: clinical observation of TD with blepharospasm
Format: in vivo, human
Conditions: Case 1; subjective and objective
Experimental: Palliative treatment with alprazolam (an anxiolytic and GABA agonist via modulation; dosage 0.25 mg four times a day) and trihexyphenidyl (an anticholinergic antiparkinson drug that inhibits dopamine re-uptake at synapses; dosage 2 mg twice a day) was prescribed by another physician.
Initially, their other medications were maintained unchanged.
Nimodipine was discontinued, and the patient was begun on memantine at a dosage of 10 mg twice a day.
For the following 10 days they added 250 mg three times a day of chelated magnesium.

## COCCOC(=O)C1=C(C)NC(C)=C(C(=O)OC(C)C)C1c1cccc([N+](=O)[O-])c1 (stereo not shown) [nimodipine]
  cognitive function (energy, attention, concentration): no symptomatic improvement in cognitive function
